Results from patent publication US20230416196A1, “DIMER OF BIGUANIDINES AND THEIR THERAPEUTIC USES” (INSTITUT CURIE, priority 2020, published 2023).

Columns and labels:
mitochondria = assay: Subcellular localisation (NanoSIMS imaging, click labeling with fluorescence microscopy) in activated MDM; assay type: cell-based, human; settings: aMDM; cytochrome c as mitochondrial marker
[1] = High-resolution mass spectrometry of biguanide:copper(II) complexes; assay type: physicochemical; settings: FIG. 3G

**Q.** For `N=C(N)NC(=N)NCCCCCCCCCCCCNC(=N)NC(=N)N` [LCC-12, lipophilic copper clamp C12], which subcellular localisation (mitochondria) is on record?
**A.** accumulation of LCC-12 in mitochondria

**Q.** What about the “formation of copper(II) complex detected by HRMS” value [1] of the same compound?
**A.** formed a mono-adduct with copper(II) at low-micromolar concentrations

**Q.** Which “formation of copper(II) complex detected by HRMS” value [1] does the source give for `CN(C)C(=N)NC(=N)N` [Metformin, 1,1-dimethylbiguanid hydrochloride, reference compound] here?
**A.** substantially higher concentrations of Met were required to detect a bimolecular copper complex

**Q.** Which subcellular localisation (mitochondria) does the source give for `C#CCCN(C)C(=N)NC(=N)N` [metforminyn, reference compound] here?
**A.** co-localizing with the mitochondrial component cytochrome c

Where a name gives a salt, the structure may show the parent alone.
